According to the supplement of paper PMC10727501:
Some of the results follow. Repeats in this data set agree poorly, so a single value says little.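 Free-swimming zebrafish larvae were scored for O-bend response probability to dark flashes (naive: first five; training: remaining flashes of four 60-flash blocks; test: later 60-flash block) and for turning toward alternating leftward/rightward LED motion (OMR). Six treated larvae were compared with sixty 0.1% DMSO controls; |SSMD|≥2 defined a hit.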

Test system: Danio rerio larvae (5 dpf, TLF)
Assay: OMR-Perf (SSMD vs DMSO vehicle); higher = higher than vehicle (e.g. higher dark-flash O-bend response probability, or better optomotor performance)
Conditions: 10 µM; pre-incubation: 30-90 min

Row | Compound | OMR-Perf
1 | CC(C)(Sc1cc(C(C)(C)C)c(O)c(C(C)(C)C)c1)Sc1cc(C(C)(C)C)c(O)c(C(C)(C)C)c1 [Probucol] | -0.32
2 | NS(=O)(=O)C#Cc1ccccc1 [Pifithrin-Î¼] | -0.617
3 | Cc1cc(Cl)ccc1OCCCC(=O)NO [Droxinostat] | -0.0654
4 | CS(=O)(=O)CCNCc1ccc(-c2ccc3ncnc(Nc4ccc(OCc5cccc(F)c5)c(Cl)c4)c3c2)o1 [Lapatinib] | -0.279
5 | O=C(Nc1c(Cl)cncc1Cl)c1ccc(OC(F)F)c(OCC2CC2)c1 [Roflumilast] | -0.471
6 | C#C[C@@]1(O)CC[C@H]2[C@@H]3CCC4=CC(=O)CC[C@@H]4[C@@H]3CC[C@@]21CC [Levonorgestrel] | -1.05
7 | COc1cc2c(cc1OC)-c1cc3ccc(OC)c(OC)c3c[n+]1CC2.[Cl-] [Palmatine chloride] | -0.411
8 | CC1(C)[C@@H](O[C@H]2O[C@H](C(=O)O)[C@@H](O)[C@H](O)[C@@H]2O[C@@H]2O[C@H](C(=O)O)[C@@H](O)[C@H](O)[C@@H]2O)CC[C@@]2(C)[C@H]1CC[C@]1(C)[C@H]2C(=O)C=C2[C@H]3C[C@@](C)(C(=O)O)CC[C@]3(C)CC[C@]21C [Glycyrrhizic Acid] | -0.0719
9 | CN1CCc2c(c3ccccc3n2Cc2ccc(C(=O)NO)cc2)C1.Cl [Tubastatin A HCl] | -0.211
